The values that follow come from article PMC4126343.

Sequences of proteins named here, by UniProt entry; tags and fusion partners are left off. A change or cut given only in a name is not applied to a line headed by its entry.
UniProt P50750: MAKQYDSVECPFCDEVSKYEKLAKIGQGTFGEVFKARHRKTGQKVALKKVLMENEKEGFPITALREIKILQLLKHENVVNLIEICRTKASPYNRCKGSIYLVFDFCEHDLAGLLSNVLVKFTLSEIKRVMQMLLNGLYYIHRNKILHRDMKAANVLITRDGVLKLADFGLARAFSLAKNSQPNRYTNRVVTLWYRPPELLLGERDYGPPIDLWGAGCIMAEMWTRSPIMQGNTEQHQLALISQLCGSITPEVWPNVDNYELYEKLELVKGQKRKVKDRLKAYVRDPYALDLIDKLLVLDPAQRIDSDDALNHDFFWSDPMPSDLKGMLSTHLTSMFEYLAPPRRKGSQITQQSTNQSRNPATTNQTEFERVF
UniProt O00472: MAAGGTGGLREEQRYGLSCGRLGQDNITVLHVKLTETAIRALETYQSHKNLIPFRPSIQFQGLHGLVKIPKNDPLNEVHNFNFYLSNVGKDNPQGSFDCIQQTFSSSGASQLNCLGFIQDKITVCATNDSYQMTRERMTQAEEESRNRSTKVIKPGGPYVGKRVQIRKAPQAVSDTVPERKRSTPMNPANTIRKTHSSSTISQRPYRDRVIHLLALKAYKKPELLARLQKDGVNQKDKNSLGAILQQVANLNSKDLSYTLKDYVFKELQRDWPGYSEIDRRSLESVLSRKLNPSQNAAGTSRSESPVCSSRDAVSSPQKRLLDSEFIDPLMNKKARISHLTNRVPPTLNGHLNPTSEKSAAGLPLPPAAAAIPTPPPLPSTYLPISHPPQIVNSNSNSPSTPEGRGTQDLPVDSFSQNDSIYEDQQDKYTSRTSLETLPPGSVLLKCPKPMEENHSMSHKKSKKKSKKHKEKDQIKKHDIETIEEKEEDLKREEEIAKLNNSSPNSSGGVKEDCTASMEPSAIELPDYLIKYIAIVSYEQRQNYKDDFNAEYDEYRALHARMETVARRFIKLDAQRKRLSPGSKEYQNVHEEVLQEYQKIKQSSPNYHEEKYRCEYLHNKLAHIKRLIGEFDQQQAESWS
UniProt P42568: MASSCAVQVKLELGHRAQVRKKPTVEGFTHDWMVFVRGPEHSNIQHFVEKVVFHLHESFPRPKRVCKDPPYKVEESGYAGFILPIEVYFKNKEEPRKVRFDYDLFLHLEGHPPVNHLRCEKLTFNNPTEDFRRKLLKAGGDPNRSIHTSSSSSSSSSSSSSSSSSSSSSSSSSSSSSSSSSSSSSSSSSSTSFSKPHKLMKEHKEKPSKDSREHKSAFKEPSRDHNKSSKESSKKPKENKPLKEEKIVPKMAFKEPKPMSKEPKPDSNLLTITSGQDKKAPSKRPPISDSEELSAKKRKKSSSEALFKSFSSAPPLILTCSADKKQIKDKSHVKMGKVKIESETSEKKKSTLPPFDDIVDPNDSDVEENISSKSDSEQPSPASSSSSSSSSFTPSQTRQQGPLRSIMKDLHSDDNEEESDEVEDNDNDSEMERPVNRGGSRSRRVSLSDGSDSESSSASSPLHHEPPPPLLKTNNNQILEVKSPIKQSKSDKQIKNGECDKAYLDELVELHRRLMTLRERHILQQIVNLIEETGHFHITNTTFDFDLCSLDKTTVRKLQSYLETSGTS
UniProt O94992: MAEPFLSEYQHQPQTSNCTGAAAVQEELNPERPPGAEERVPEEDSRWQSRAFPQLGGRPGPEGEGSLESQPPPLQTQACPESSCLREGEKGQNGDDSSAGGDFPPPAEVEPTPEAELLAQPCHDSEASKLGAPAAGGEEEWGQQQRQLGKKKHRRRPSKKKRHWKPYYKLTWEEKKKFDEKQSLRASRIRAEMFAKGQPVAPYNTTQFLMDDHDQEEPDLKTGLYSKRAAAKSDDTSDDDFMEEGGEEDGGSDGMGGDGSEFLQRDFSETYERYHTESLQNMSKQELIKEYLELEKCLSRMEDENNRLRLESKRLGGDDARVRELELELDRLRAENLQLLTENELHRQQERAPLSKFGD

These are yes or no findings as the source states them, for the method shown. In cells and extracts the contact can be indirect. Some results given as binding are weak or reduced against the parent protein; the word gives no strength.

To fix the notation:
B1: MePCE (protein, UniProt Q7L2J0 1-689)
chain: MIEMAAEKEPFLVPAPPPPLKDESGGGGGPTVPPHQEAASGELRGGTERGPGRCAPSAGSPAAAVGRESPGAAATSSSGPQAQQHRGGGPQAQSHGEARLSDPPGRAAPPDVGEERRGGGGTELGPPAPPRPRNGYQPHRPPGGGGGKRRNSCNVGGGGGGFKHPAFKRRRRVNSDCDSVLPSNFLLGGNIFDPLNLNSLLDEEVSRTLNAETPKSSPLPAKGRDPVEILIPKDITDPLSLNTCTDEGHVVLASPLKTGRKRHRHRGQHHQQQQAAGGSESHPVPPTAPLTPLLHGEGASQQPRHRGQNRDAPQPYELNTAINCRDEVVSPLPSALQGPSGSLSAPPAASVISAPPSSSSRHRKRRRTSSKSEAGARGGGQGSKEKGRGSWGGRHHHHHPLPAAGFKKQQRKFQYGNYCKYYGYRNPSCEDGRLRVLKPEWFRGRDVLDLGCNVGHLTLSIACKWGPSRMVGLDIDSRLIHSARQNIRHYLSEELRLPPQTLEGDPGAEGEEGTTTVRKRSCFPASLTASRGPIAAPQVPLDGADTSVFPNNVVFVTGNYVLDRDDLVEAQTPEYDVVLCLSLTKWVHLNWGDEGLKRMFRRIYRHLRPGGILVLEPQPWSSYGKRKTLTETIYKNYYRIQLKPEQFSSYLTSPDVGFSSYELVATPHNTSKGFQRPVYLFHKARSPSH
B2: AFF4 (protein, UniProt Q9UHB7 1-1163)
chain: MNREDRNVLRMKERERRNQEIQQGEDAFPPSSPLFAEPYKVTSKEDKLSSRIQSMLGNYDEMKDFIGDRSIPKLVAIPKPTVPPSADEKSNPNFFEQRHGGSHQSSKWTPVGPAPSTSQSQKRSSGLQSGHSSQRTSAGSSSGTNSSGQRHDRESYNNSGSSSRKKGQHGSEHSKSRSSSPGKPQAVSSLNSSHSRSHGNDHHSKEHQRSKSPRDPDANWDSPSRVPFSSGQHSTQSFPPSLMSKSNSMLQKPTAYVRPMDGQESMEPKLSSEHYSSQSHGNSMTELKPSSKAHLTKLKIPSQPLDASASGDVSCVDEILKEMTHSWPPPLTAIHTPCKTEPSKFPFPTKESQQSNFGTGEQKRYNPSKTSNGHQSKSMLKDDLKLSSSEDSDGEQDCDKTMPRSTPGSNSEPSHHNSEGADNSRDDSSSHSGSESSSGSDSESESSSSDSEANEPSQSASPEPEPPPTNKWQLDNWLNKVNPHKVSPASSVDSNIPSSQGYKKEGREQGTGNSYTDTSGPKETSSATPGRDSKTIQKGSESGRGRQKSPAQSDSTTQRRTVGKKQPKKAEKAAAEEPRGGLKIESETPVDLASSMPSSRHKAATKGSRKPNIKKESKSSPRPTAEKKKYKSTSKSSQKSREIIETDTSSSDSDESESLPPSSQTPKYPESNRTPVKPSSVEEEDSFFRQRMFSPMEEKELLSPLSEPDDRYPLIVKIDLNLLTRIPGKPYKETEPPKGEKKNVPEKHTREAQKQASEKVSNKGKRKHKNEDDNRASESKKPKTEDKNSAGHKPSSNRESSKQSAAKEKDLLPSPAGPVPSKDPKTEHGSRKRTISQSSSLKSSSNSNKETSGSSKNSSSTSKQKKTEGKTSSSSKEVKEKAPSSSSNCPPSAPTLDSSKPRRTKLVFDDRNYSADHYLQEAKKLKHNADALSDRFEKAVYYLDAVVSFIECGNALEKNAQESKSPFPMYSETVDLIKYTMKLKNYLAPDATAADKRLTVLCLRCESLLYLRLFKLKKENALKYSKTLTEHLKNSYNNSQAPSPGLGSKAVGMPSPVSPKLSPGNSGNYSSGASSASASGSSVTIPQKIHQMAASYVQVTSNFLYATEIWDQAEQLSKEQKEFFAELDKVMGPLIFNASIMTDLVRYTRQGLHWLRQDAKLIS

The test deals with cyclin-dependent kinase 9 (CDK9) (human (endogenous in T47D)) (UniProt P50750). Description: co-IP; anti-CDK9 immunoprecipitation from nuclear extracts of T47D control and shLARP7 (LARP7 knock-down) cells; 4°C overnight, protein A beads 2 hr, washed with buffer D containing 0.3 M KCl, eluted with 0.1 M glycine pH 2.0; Western blotting. In general terms: In western blotting, separated proteins are transferred to a membrane and probed.
ELL2 (from UniProt O00472 1-640): the binding result is given as “binds”.
In the case of AF9 (from UniProt P42568 1-568) it was “binds”.
In the case of HEXIM1 (from UniProt O94992 1-359) it was “binds”; in that of B1, “binds”; in that of B2, “binds”.
